Measured values reported in article PMC6486635.
For some of these results: Weaker means in comparison with the reference protein, sequence or condition of that experiment. For some of these results: Construct, isoform or probe ends are uncertain for at least one entry.

Amino acid sequences for entries named in this document (tags omitted). Residues count along the entry.
UniProt Q9NZI8, 194-369 K213D/E214D: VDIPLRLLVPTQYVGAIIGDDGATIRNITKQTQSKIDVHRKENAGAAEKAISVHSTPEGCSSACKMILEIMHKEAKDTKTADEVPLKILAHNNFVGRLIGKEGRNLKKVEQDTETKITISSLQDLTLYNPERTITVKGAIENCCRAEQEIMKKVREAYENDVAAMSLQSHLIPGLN
UniProt Q9NZI8, 194-369 K294D/E295D: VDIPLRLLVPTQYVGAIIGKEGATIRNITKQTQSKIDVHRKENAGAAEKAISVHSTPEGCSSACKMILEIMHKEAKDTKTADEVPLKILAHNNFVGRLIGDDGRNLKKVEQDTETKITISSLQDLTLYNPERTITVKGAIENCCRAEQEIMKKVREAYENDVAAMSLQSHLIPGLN

Key:
[1] = biological target: IMP1 KH1DDKH2 K213D,E214D (Homo sapiens) (UniProt Q9NZI8); assay: ITC; conditions: 10 mM sodium phosphate pH 7.4, 50 mM NaCl; ITC 25 C with 2 mM TCEP; RNAsin 40-100 u/ml; recombinant protein; residues 194-369; protein details: 6xHis-GST removed by TEV
[2] = biological target: IMP1 KH1KH2DD K294D,E295D (Homo sapiens) (UniProt Q9NZI8); assay: ITC; conditions: 10 mM sodium phosphate pH 7.4, 50 mM NaCl, ITC 25 C with 2 mM TCEP, RNAsin 40-100 u/ml, recombinant protein, residues 194-369, protein details: 6xHis-GST removed by TEV
[3] = biological target: IMP1 KH1DDKH2 K213D,E214D (Homo sapiens) (UniProt Q9NZI8); assay: NMR; conditions: fast exchange; 10 mM sodium phosphate pH 7.4, 50 mM NaCl; NMR 0.5 mM TCEP; RNAsin 40-100 u/ml; recombinant protein; residues 194-369; protein details: 6xHis-GST removed by …

Sequence	Kd [1] [µM]	other results
UUCUG	> 200	
UUCGG	> 200	
UCCAU		Kd [2]: 28 µM
UCCCG		binding result [3]: binds more weakly
UCGGU		Kd ([2]; RNA may self-pair): 14 µM
UUUCG	104	
UUGCG	90	
UCCUU		Kd [2]: > 200 µM
UUCAG	> 200	
UUACG	114	
